Data from PubChem BioAssay (EPA / NIEHS).
The shares of active, inactive and inconclusive entries below differ from those in the screen. For some of these results: Potencies of inconclusive entries are doubtful fits and often do not repeat. Active and inactive are the calls of the source. How the source made its calls: active means hit-call score of the fitted dose curve at least 0.9, where 1 is the maximum; inconclusive means response in the unintended direction; inactive means score below 0.9.

Protein sequences, listed by entry. Tags and fused reporters are not part of them. Lines headed by an entry give the natural chain unless they say otherwise; changes in a name come on top.
UniProt Q13131: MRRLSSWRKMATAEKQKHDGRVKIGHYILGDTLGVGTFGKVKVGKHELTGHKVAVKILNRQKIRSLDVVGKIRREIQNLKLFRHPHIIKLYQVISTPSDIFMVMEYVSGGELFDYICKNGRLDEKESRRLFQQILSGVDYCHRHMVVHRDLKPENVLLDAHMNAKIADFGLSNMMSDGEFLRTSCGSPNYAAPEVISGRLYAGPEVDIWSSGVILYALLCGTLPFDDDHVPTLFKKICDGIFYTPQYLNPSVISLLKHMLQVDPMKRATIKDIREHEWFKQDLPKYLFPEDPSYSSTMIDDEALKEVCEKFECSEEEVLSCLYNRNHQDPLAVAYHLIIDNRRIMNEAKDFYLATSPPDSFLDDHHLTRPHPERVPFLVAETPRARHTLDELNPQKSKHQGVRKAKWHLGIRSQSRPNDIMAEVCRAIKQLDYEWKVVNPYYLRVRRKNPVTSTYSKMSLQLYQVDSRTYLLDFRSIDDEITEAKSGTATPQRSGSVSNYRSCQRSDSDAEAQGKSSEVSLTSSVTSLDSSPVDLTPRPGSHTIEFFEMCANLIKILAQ
UniProt P29317, whole entry, looked up: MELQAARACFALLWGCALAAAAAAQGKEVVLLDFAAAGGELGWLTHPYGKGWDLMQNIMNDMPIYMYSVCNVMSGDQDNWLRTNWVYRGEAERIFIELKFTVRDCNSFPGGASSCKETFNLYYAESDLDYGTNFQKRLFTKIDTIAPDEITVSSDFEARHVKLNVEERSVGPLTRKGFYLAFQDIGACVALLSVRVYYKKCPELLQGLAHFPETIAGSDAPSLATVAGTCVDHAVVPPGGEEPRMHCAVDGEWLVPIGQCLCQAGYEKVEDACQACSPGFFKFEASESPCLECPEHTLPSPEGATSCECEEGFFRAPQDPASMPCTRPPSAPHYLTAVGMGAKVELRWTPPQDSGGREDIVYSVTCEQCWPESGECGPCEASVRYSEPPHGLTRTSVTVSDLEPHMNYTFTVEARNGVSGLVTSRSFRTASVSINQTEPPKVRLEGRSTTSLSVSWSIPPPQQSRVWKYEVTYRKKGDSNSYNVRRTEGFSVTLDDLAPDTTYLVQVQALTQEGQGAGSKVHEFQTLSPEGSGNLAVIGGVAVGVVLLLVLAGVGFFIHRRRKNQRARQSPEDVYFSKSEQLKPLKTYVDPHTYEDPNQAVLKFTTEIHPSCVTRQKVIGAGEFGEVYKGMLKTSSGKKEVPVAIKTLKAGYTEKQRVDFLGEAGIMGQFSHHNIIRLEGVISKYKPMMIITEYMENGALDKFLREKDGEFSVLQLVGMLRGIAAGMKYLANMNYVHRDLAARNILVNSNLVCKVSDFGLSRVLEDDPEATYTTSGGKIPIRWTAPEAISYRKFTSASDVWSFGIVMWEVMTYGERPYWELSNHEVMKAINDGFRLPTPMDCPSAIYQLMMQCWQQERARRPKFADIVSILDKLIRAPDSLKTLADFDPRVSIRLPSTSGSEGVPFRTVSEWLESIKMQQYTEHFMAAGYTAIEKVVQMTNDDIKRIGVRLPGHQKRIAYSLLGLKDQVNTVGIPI
UniProt P03956: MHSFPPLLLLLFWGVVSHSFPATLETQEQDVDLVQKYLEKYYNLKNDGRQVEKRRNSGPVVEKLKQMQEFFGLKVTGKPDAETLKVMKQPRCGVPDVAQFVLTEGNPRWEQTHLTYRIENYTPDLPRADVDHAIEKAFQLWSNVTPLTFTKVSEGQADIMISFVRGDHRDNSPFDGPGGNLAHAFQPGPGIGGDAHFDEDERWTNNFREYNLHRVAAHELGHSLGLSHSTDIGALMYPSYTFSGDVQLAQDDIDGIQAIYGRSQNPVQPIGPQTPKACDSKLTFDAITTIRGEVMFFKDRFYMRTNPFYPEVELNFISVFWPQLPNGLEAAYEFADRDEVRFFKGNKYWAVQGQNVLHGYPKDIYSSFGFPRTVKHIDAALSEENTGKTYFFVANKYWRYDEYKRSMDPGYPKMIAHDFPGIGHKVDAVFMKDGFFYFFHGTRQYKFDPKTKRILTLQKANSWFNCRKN
UniProt P70536: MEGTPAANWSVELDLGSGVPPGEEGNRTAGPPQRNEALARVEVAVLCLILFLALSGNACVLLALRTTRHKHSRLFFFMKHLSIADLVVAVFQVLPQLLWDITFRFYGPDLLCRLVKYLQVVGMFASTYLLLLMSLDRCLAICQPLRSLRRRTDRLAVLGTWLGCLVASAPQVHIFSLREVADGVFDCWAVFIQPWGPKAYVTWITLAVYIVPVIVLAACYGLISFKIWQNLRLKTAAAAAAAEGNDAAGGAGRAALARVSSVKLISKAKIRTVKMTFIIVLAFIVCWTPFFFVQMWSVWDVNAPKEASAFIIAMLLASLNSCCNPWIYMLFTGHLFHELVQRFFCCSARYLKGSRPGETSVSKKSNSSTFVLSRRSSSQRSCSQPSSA
UniProt P60484: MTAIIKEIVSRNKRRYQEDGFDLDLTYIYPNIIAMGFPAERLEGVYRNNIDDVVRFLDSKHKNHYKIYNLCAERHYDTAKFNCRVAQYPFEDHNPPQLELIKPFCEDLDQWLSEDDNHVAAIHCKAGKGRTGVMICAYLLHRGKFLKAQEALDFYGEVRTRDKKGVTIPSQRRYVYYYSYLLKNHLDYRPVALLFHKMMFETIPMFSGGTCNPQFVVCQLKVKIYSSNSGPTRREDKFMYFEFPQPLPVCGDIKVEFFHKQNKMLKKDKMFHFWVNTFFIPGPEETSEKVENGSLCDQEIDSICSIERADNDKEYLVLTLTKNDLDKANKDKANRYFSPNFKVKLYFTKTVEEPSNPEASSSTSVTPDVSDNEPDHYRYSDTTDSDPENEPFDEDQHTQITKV
UniProt P08219: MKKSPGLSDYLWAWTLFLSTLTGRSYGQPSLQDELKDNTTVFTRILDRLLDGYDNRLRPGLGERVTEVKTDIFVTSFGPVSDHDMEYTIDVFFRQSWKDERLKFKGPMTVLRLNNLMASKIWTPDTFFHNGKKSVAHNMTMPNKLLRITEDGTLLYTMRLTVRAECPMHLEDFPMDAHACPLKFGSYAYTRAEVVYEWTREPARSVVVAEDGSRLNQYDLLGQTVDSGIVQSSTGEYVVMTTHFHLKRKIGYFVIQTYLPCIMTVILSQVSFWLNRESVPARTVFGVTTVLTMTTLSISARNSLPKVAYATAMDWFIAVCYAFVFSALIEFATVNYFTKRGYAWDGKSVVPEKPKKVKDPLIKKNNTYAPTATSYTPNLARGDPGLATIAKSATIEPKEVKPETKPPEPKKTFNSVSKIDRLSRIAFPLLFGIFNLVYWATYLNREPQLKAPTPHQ
UniProt P29466: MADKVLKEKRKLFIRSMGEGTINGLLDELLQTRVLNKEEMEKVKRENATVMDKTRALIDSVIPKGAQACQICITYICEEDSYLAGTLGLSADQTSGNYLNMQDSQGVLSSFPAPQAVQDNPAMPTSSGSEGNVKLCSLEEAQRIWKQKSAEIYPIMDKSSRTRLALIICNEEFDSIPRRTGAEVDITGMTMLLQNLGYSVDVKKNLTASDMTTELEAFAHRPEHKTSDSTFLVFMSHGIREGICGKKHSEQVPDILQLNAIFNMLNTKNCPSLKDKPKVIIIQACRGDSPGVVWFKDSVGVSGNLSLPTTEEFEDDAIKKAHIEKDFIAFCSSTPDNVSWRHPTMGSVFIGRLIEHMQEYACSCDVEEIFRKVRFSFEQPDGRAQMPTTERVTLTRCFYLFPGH
UniProt O15111: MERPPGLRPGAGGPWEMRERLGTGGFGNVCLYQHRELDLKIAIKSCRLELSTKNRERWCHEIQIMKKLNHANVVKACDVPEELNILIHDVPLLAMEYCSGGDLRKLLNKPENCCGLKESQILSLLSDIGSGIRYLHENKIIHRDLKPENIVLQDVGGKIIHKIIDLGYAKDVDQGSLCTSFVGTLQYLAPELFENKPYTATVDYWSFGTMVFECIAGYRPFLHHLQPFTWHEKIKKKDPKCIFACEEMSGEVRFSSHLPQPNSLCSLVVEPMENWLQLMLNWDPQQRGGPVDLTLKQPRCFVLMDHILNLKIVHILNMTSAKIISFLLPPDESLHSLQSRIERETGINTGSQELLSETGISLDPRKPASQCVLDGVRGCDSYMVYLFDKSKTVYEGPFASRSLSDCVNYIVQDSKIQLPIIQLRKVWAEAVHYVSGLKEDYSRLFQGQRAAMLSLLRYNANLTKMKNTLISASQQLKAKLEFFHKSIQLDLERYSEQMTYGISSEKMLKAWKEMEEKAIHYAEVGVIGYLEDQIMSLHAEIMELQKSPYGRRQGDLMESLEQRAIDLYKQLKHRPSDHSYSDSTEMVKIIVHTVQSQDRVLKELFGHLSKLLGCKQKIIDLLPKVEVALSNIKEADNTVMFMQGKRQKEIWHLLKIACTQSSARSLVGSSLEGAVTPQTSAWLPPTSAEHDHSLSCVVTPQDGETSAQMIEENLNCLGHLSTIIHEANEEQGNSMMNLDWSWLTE
UniProt P08575: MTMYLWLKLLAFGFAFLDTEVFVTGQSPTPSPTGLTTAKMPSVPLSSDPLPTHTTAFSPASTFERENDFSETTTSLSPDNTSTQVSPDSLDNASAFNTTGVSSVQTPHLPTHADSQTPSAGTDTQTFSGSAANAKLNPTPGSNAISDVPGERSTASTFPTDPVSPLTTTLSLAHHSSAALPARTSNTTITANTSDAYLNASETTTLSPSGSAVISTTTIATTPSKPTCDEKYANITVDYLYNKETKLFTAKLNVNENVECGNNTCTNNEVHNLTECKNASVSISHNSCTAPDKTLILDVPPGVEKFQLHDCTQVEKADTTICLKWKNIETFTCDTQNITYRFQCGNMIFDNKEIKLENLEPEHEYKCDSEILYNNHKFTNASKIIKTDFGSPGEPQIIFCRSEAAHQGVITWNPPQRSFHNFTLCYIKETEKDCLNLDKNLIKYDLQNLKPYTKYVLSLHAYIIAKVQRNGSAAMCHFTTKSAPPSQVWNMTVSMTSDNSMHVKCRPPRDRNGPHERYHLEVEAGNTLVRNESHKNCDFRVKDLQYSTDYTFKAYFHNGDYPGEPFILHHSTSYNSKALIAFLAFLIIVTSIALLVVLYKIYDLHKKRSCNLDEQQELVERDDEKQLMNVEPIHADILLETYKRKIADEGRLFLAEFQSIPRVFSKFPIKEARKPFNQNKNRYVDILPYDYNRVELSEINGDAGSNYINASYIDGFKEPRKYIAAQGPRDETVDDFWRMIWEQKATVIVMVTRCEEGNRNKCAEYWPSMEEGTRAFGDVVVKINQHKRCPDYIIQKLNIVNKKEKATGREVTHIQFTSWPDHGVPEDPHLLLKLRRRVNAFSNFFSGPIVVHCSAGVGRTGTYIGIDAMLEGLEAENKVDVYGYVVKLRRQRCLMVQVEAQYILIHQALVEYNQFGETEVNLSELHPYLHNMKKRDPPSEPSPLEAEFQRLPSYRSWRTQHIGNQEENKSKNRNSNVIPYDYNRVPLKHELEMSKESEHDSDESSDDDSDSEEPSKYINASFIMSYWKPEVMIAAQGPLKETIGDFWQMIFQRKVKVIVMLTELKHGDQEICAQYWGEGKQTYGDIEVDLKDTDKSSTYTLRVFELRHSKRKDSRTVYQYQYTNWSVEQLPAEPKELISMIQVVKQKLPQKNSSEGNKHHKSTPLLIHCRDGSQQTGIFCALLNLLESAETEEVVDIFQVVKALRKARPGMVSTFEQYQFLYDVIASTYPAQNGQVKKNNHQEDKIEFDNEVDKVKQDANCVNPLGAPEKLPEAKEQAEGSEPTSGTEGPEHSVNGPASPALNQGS
UniProt P11510: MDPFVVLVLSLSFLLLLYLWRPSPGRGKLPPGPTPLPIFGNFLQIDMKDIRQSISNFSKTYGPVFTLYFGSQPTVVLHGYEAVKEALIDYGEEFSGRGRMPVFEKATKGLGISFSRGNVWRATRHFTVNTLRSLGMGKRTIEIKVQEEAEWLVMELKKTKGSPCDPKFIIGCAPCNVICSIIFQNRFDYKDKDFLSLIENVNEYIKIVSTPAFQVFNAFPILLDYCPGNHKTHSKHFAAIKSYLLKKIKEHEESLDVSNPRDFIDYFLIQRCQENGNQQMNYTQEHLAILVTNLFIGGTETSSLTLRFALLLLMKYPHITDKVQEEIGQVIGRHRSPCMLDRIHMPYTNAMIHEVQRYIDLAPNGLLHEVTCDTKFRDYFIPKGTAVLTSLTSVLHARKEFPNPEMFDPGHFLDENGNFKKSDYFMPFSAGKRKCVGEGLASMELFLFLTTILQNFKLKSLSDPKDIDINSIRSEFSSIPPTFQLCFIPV

Assays:
[1] = target: human AMP-activated Protein Kinase, alpha 1 (AMPKa1), PRKAA1 (gene 5562) (UniProt Q13131); assay: NVS_ENZ_hAMPKa1: NovaScreen (NVS) Enzymatic Assay for human AMP-activated Protein Kinase, alpha 1 (AMPKa1) (AID 2283130)
Outline: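 Recombinant human AMPKα1 activity was measured cell-free by fluorescent substrate conversion with electrophoretic mobility-shift separation, 1 h after dosing. Duplicate single-point screening was at 25 uM; actives (≥30% inhibition) were retested in concentration-response up to 50 uM.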

[2] = target: human Ephrin type-A Receptor 2 (EphA2), EPHA2 (gene 1969) (UniProt P29317); assay: NVS_ENZ_hEphA2: NovaScreen (NVS) Enzymatic Assay for human Ephrin type-A Receptor 2 (EphA2) (AID 2283155)
Outline: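 Cell-free recombinant EphA2 kinase with specific substrate, 1 h, fluorescence with electrophoretic mobility-shift separation of substrate and product. Primary screen at 25 uM in duplicate; hits retested in singleton concentration-response up to 50 uM, referenced to DMSO.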

[3] = target: human Matrix Metalloproteinase-1 (MMP1), MMP1 (gene 4312) (UniProt P03956); assay: NVS_ENZ_hMMP1: NovaScreen (NVS) Enzymatic Assay for human Matrix Metalloproteinase-1 (MMP1) (AID 2283181)
Outline: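 Human MMP1 enzyme activity measured by fluorescence 1 h after dosing, cell-free, with a specific substrate. Screened in duplicate at 25 uM; hits (e.g. 30% inhibition) run in concentration-response up to 50 uM; loss of signal versus DMSO.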

[4] = target: rat Oxytocin Receptor (OXT), Oxtr (gene 25342) (UniProt P70536); assay: NVS_GPCR_rOXT: NovaScreen (NVS) G Protein-Coupled Receptor Assay for rat Oxytocin Receptor (OXT) (AID 2283330)
Outline: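 Radioligand displacement on rat uterine membranes, 1 h incubation, filter-based scintillation counting. Chemicals were screened in duplicate at 25 uM, and those passing threshold were retested in concentration-response up to 50 uM. Loss of binding was fitted versus DMSO.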

[5] = target: human Fibroblast Growth Factor Receptor 1 (FGFR1), FGFR1 (gene 2260) (UniProt P11362); assay: NVS_ENZ_hFGFR1: NovaScreen (NVS) Enzymatic Assay for human Fibroblast Growth Factor Receptor 1 (FGFR1) (AID 2283159)
Outline: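 Cell-free recombinant kinase with fluorescent substrate, product separated by electrophoretic mobility shift; read 1 hour after dosing, loss of signal relative to DMSO. Initial screen in duplicate at 25 uM, actives followed in concentration series.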

[6] = target: human Phosphatase and Tensin Homolog (PTEN), PTEN (gene 5728) (UniProt P60484); assay: NVS_ENZ_hPTEN: NovaScreen (NVS) Enzymatic Assay for human Phosphatase and Tensin Homolog (PTEN) (AID 2283203)
Outline: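 Cell-free recombinant human PTEN with fluorescent substrate; product separated by electrophoretic mobility shift and read by fluorescence 1 h after dosing. Primary screen in duplicate at 25 uM, actives followed in concentration series versus DMSO.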

[7] = target: bovine Gamma-Aminobutyric Acid Type A Receptor BDZ, alpha 1 site (GABARa1), GABRA1 (gene 780973) (UniProt P08219); assay: NVS_LGIC_bGABARa1: NovaScreen (NVS) Ligand-Gated Ion Channel Assay for bovine Gamma-Aminobutyric Acid Type A Receptor BDZ, alpha 1 site (GABARa1) (AID 2283321)
Outline: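 Radioligand competition binding on bovine cortical membranes, 0.75 h, filter-based scintillation counting. Primary single concentration 25 uM in duplicate; actives rerun in concentration-response to 50 uM max. Loss of signal fitted versus DMSO.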

[8] = target: human Acetylcholinesterase (AChE), ACHE (gene 43) (UniProt P22303); assay: NVS_ENZ_hAChE: NovaScreen (NVS) Enzymatic Assay for human Acetylcholinesterase (AChE) (AID 2283129)
Outline: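 Cell-free colorimetric enzyme-activity assay; compounds read 0.33 hour after dosing, loss of signal vs DMSO baseline. Primary screen in duplicate at 25 uM single concentration, with active compounds retested in concentration series.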

[9] = target: rat Monoamine Oxidase, MAO-B, Peripheral (MAOBP), Maob (gene 25750) (UniProt P19643); assay: NVS_ENZ_rMAOBP: NovaScreen (NVS) Enzymatic Assay for rat Monoamine Oxidase, MAO-B, Peripheral (MAOBP) (AID 2283242)
[10] = target: Caspase-1 (Homo sapiens) (UniProt P29466); assay: NVS_ENZ_hCASP1: NovaScreen (NVS) Enzymatic Assay for human Caspase 1 (CASP1) (AID 2283132)
Outline: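 Cell-free enzymatic assay with E. coli-expressed recombinant protein; fluorescence intensity read 1 hour after dosing. Single-concentration duplicate screen at 25 uM, then concentration-response up to 50 uM; activity fitted relative to DMSO, loss of signal meaning inhibition.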

[11] = target: human IkappaB Kinase alpha (IKKa), CHUK (gene 1147) (UniProt O15111); assay: NVS_ENZ_hIKKa: NovaScreen (NVS) Enzymatic Assay for human IkappaB Kinase alpha (IKKa) (AID 2283167)
Outline: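 Cell-free recombinant human IKKa with fluorescent substrate, product separated by electrophoretic mobility shift; read 1 hour after dosing. Primary screen duplicate at 25 uM, actives then concentration-response up to 50 uM; loss of signal relative to DMSO.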

[12] = target: human Protein Tyrosine Phosphatase Receptor Type C (PTPRC), PTPRC (gene 5788) (UniProt P08575); assay: NVS_ENZ_hPTPRC: NovaScreen (NVS) Enzymatic Assay for human Protein Tyrosine Phosphatase Receptor Type C (PTPRC) (AID 2283212)
Outline: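 Yeast-extracted human PTPRC used in a cell-free colorimetric enzyme activity read-out, 1 h after dosing. Primary screen in duplicate at 25 uM; actives rerun in concentration-response up to 50 uM, DMSO as baseline.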

[13] = target: human Ephrin type-B Receptor 2 (EphB2), EPHB2 (gene 2048) (UniProt P29323); assay: NVS_ENZ_hEphB2: NovaScreen (NVS) Enzymatic Assay for human Ephrin type-B Receptor 2 (EphB2) (AID 2283156)
Outline: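 Recombinant kinase with fluorescent substrate, product separated by electrophoretic mobility shift, read 1 h after dosing. Duplicate 25 uM screen, then singleton concentration-response to 50 uM max; loss of signal versus DMSO.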

[14] = target: rat Neurotensin Receptor (NTS), Ntsr1 (gene 366274) (UniProt P20789); assay: NVS_GPCR_rNTS: NovaScreen (NVS) G Protein-Coupled Receptor Assay for rat Neurotensin Receptor (NTS) (AID 2283308)
Outline: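 Rat forebrain membranes; radioligand binding with competitive displacement, read by filter-based scintillation counting 1 h after dosing. Primary screen in duplicate at 25 uM; actives (e.g., 30% inhibition) rerun in concentration-response up to 50 uM, loss-of-signal versus DMSO.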

[15] = tested on: rat CYP2B1, gene 24300; assay: NVS_ADME_rCYP2B1: NovaScreen (NVS) CYP450-related Enzyme Activity (ADME) Assay for rat CYP2B1 (AID 2283117)
Outline: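 Recombinant rat CYP2B1 with fluorogenic substrate, read at 0.75 h. Primary screen in duplicate at 10 uM; compounds meeting threshold (e.g., 30% inhibition) re-run in concentration-response up to 20 uM. Fitted against acetonitrile control.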

[16] = target: rat CYP2C12, Cyp2c12 (gene 25011) (UniProt P11510); assay: NVS_ADME_rCYP2C12: NovaScreen (NVS) CYP450-related Enzyme Activity (ADME) Assay for rat CYP2C12 (AID 2283119)
Outline: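 Cell-free recombinant rat CYP2C12 activity read by fluorescence 0.5 h after dosing; loss of signal versus acetonitrile control. Primary screen in duplicate at 10 uM; actives then run in concentration-response format.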

[17] = target: human Protein Tyrosine Phosphatase Non-receptor Type 2 (PTPN2), PTPN2 (gene 5771) (UniProt P17706); assay: NVS_ENZ_hPTPN2: NovaScreen (NVS) Enzymatic Assay for human Protein Tyrosine Phosphatase Non-receptor Type 2 (PTPN2) (AID 2283207)
Outline: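 Cell-free recombinant enzyme with fluorescent substrate, product separated by electrophoretic mobility shift; read 1 h after dosing. Primary screen single concentration (25 uM) in duplicate; actives followed in concentration series; loss of signal versus DMSO.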

## CNS(=O)(=O)c1cc(C(=O)N2CCC(CCN3C4CCC3CC(n3c(C)nc5ccccc53)C4)(c3cccc(F)c3)CC2)c(Cl)cc1F (stereo not drawn)
[1]
  AC50: active: 36 µM
[2]
  outcome: inactive
[3]
  AC50: active: 16.7 µM
[4]
  AC50: inconclusive: 25 µM

## CNC(=O)[C@H]1O[C@@H](n2cnc3c(NCc4cc(Cl)ccc4OCc4cc(C)no4)ncnc32)[C@H](O)[C@@H]1N
[1]
  outcome: inactive
[5]
  outcome: inactive

## CCCC(CCC)C(=O)O
[1]
  AC50: inconclusive: 25 µM
[6]
  outcome: inactive
[7]
  AC50: inconclusive: 5.99 µM

## CCCCOC(=O)CC(CC(=O)OCCCC)(OC(C)=O)C(=O)OCCCC
[8]
  AC50: inconclusive: 25 µM

## O=C(O)Cc1cc(I)c(Oc2ccc(O)c(I)c2)c(I)c1
[1]
  outcome: inactive
[9]
  AC50: inconclusive: 0.107 µM

## Cc1c2ccccc2c(C)c2c1ccc1ccccc12
[10]
  AC50: inconclusive: 1.31 µM

## COCCOCCOCCOC
[10]
  AC50: inconclusive: 2.89 µM
[11]
  AC50: inconclusive: 25 µM

## CCOC(=O)C(C)(C)Oc1ccc(Cl)cc1
[1]
  outcome: inactive
[6]
  outcome: inactive
[12]
  outcome: inactive

## O=C(O)C1(C(=O)Nc2ccc(Cl)cc2Cl)CC1
[1]
  AC50: active: 7.12 µM
[13]
  AC50: inconclusive: 32.5 µM
[6]
  AC50: active: 3.91 µM
[14]
  AC50: inconclusive: 0.0808 µM

## Oc1ccc(C(c2ccc(O)cc2)C(Cl)(Cl)Cl)cc1
[15]
  AC50: active: 9.18 µM
[16]
  outcome: inactive
[13]
  outcome: inactive
[17]
  AC50: inconclusive: 0.307 µM

## CC(C)(C)c1csc(-c2cc3cc(OCc4ccccc4CC(=O)O)ccc3o2)n1
[1]
  AC50: inconclusive: 25 µM

## CC[C@H](c1ccc(O)cc1)[C@@H](CC)c1ccc(O)cc1
[1]
  AC50: inconclusive: 25 µM
